Measurements as given in patent publication US10273451B2, “Immortalization of cells including neuronal cells” (The Johns Hopkins University, priority 2005, dated 2019).
For at least one compound, name, drawing or mass did not settle the structure.

Columns and labels:
[1] = tested on: 50B11 cells; test: Real-time PCR of gene expression changes; assay type: cell-based, rat
Description: For analysis of changes in gene expression, 501311 cells were grown in media containing forskolin (50 μM), NGF (10 ng/ml), GDNF (10 ng/ml) or vehicle control for 24 hours. Total RNA was isolated using the TRIzol Reagent according to the manufacturer's recommendation. Two μg total RNA was reverse-transcribed using Ready-To-Go You-Prime First-Strand Bead (Amersham Biosciences, Piscataway, N.J.) according to manufacturer's protocols. Real-time PCR was carried out in a DNA Engine Opticon Continuous Fluorescence Detection System using DyNAmo SYBR Green Polymerase (MJ Research, Waltham, Mass.). All primers were designed according to the individual gene sequence in the GenBank/EMBL nucleotide sequence database (primer sequences are available upon request). The binding positions of all primers were chosen to produce amplicons of 150 to 200 base pairs and to achieve maximum efficiency and specificity. All primer sequences were checked for specificity by a BLAST search in the GenBank/EMBL nucleotide sequence database. The primers were synthesized by Integrated DNA Technologies, Inc. (Coralville, Iowa). […] The expression levels of individual genes before and after treatment were calculated using the comparative CT method.

[2] = tested on: 50B11 cells; test: Forskolin-induced differentiation and neurite extension of the immortalized DRG neuronal line; assay type: cell-based, rat; conditions: after addition of forskolin, within 4 hours
Description: One of the immortalized DRG neuronal cell lines (50B11) maintained self-replication capability over many cell divisions (>300) and was used in further analysis of neuronal properties. Differentiation and axonal elongation was induced in these cells by addition of forskolin (50 μM) into the culture medium. Within hours, more than 90% cells stopped dividing and extended long neurites. These cells were grown in 24-well plates on glass coverslips, fixed with 4% paraformaldehyde and immunostained for presence of neurofilament (SMI-32 antibody from Stemberger Monoclonals Inc., Lutherville, Md.), ßIII-tubulin (Promega, Madison Wis.), transient receptor potential channel, vanilloid subfamily member-1 (TRPV-1) (Abeam, Cambridge, Mass.), calcitonin gene related protein (CGRP) (source, city, state) or isolectin B-4 (IB4) (Vector Laboratories, Burlingame, Calif.) using standard methods (Keswani et al., supra). Slides were counterstained with 4′,6-Diamidino-2-phenylindole (DAPI) and mounted with Vectashield (Vector Laboratories, Burlingame, Calif.). Specificity of all primary and secondary antibodies was confirmed using appropriate positive and negative control cultures.

## C=C[C@@]1(C)CC(=O)[C@]2(O)[C@@]3(C)[C@@H](O)CCC(C)(C)[C@@H]3[C@H](O)[C@H](OC(C)=O)[C@@]2(C)O1 [forskolin]
[1]; differentiated with forskolin 50 μM, 24 hours, vs undifferentiated baseline
  expression of NGF receptors (p75, Trk-A) and GDNF receptors (c-ret, GFRα-1): upregulated these receptors
[1]; differentiated with forskolin, with and without neurotrophic factor treatment
  TRPV-1 expression: upregulated their expression
[2]
  neurite length relative to neuronal body diameter: at least twice as long as the neuronal body diameter
